Substitutions are numbered along the chain they refer to. Names may count otherwise. No constants are given. Whether binding was seen depends on the method and setting. Binding seen in cells or lysates may run through a third protein. Some results given as binding are weak or reduced against the parent protein; the word gives no strength. Tags and fused reporters may be left off the sequences shown.
T1: Rrp43-TAP (carboxy-terminally TAP-tagged Rrp43 core subunit) (S. cerevisiae) (UniProt P25359)
T1 sequence: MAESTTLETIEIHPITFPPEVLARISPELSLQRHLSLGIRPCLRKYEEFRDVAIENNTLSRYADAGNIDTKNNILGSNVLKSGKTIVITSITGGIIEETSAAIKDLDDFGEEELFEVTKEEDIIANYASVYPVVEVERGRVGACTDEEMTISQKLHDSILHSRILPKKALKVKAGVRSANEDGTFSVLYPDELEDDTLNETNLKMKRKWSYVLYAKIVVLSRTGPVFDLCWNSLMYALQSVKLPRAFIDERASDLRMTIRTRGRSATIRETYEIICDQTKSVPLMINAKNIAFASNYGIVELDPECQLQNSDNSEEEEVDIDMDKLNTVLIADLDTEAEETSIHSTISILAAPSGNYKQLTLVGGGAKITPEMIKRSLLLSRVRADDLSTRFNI

B1: Rrp4-2×Myc (wild-type S. cerevisiae Rrp4, Myc-tagged) (protein, UniProt P38792 1-359)
chain: MSEVITITKRNGAFQNSSNLSYNNTGISDDENDEEDIYMHDVNSASKSESDSQIVTPGELVTDDPIWMRGHGTYFLDNMTYSSVAGTVSRVNRLLSVIPLKGRYAPETGDHVVGRIAEVGNKRWKVDIGGKQHAVLMLGSVNLPGGILRRKSESDELQMRSFLKEGDLLNAEVQSLFQDGSASLHTRSLKYGKLRNGMFCQVPSSLIVRAKNHTHNLPGNITVVLGVNGYIWLRKTSQMDLARDTPSANNSSSIKSTGPTGAVSLNPSITRLEEESSWQIYSDENDPSISNNIRQAICRYANVIKALAFCEIGITQQRIVSAYEASMVYSNVGELIEKNVMESIGSDILTAEKMRGNGN
B2: Rrp4 G226D-Myc (protein, UniProt P38792 1-359)
chain: B1 chain with G226D

Columns and labels:
[1] = molecular target: T1, Rrp43-TAP (carboxy-terminally TAP-tagged Rrp43 core subunit) (S. cerevisiae); assay: co-IP; Rrp43-TAP precipitated with IgG Sepharose beads from lysates of RRP43-TAP cells that contain the endogenous wild-type RRP4 gene and express Myc-tagged Rrp4 proteins; cells grown at 30°C; IPP150 buffer (10 mM Tris-HCl pH 8, 150 mM NaCl, 0.1% NP40), 4°C overnight; anti-Myc immunoblot
[2] = molecular target: T1, Rrp43-TAP (carboxy-terminally TAP-tagged Rrp43 core subunit) (S. cerevisiae); assay: co-IP; Rrp43-TAP precipitated with IgG Sepharose beads from lysates of RRP43-TAP rrp4Δ cells that express Rrp4-Myc or Rrp4 G226D-Myc as the sole copy of Rrp4; cells grown at 30°C; IPP150 buffer, 4°C overnight; anti-Myc immunoblot
[3] = molecular target: T1, Rrp43-TAP (carboxy-terminally TAP-tagged Rrp43 core subunit) (S. cerevisiae); assay: condition: only with an endogenous, wild-type copy of RRP4 present; co-IP; Rrp43-TAP precipitated with IgG Sepharose beads from lysates of RRP43-TAP cells that contain the endogenous wild-type RRP4 gene and express Myc-tagged Rrp4 proteins; cells grown at 30°C; IPP150 buffer (10 mM Tris-HCl pH 8, 150 mM NaCl, 0.1% NP40), 4°C overnight; anti-Myc immunoblot

Row | Binder | binding [1] | binding [2] | binding [3]
1 | B1 | binds | binds | –
2 | B2 | – | binds | no binding
